Experimental data taken from US20240025993A1, “CD19 BINDING MOLECULES AND USES THEREOF” (NOVARTIS AG, priority 2020, published 2024).
The name of at least one read-out is uncertain.

System: Karpas 422 cells
Test: Re-challenge RTCC assay (Example 24)
Assay type: cell-based, human
Conditions: last (third) challenge, Karpas422

In the case of “blinatumomab: bispecific T cell engager, or BiTE, that binds to both CD19 and CD3 but lacks an Fc domain [reference compound]”, the “RTCC at the last re-challenge (EC50 and maximum lysis)” value is reported as “higher maximum lysis than CD3hi TSP1 despite a similar EC50”.
